# According to PubChem BioAssay AID1347423 (Functional Genomics Laboratory (NCATS/FGL), 2020):
# The whole screen tested about 52,000 sequences, of which about 210 (0.4%) were called active.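 How the source made its calls: active means gene whose silencing raises cell survival under the drug, median off-target-corrected z-score across its silencing RNAs 2 or more; inactive means the rest.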 This is one part of the list.
# Test: Resistance to Poly (ADP-Ribose) Polymerase inhibitor: Gene Identification via Genome-wide siRNA Screen
# Details: mouse BRCA2 R2336H ES cells, olaparib, CellTiter-Glo viability; stronger effect = higher value
# Method in brief: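 Genome-wide siRNA screen (3 siRNAs/gene, 20 nM) in mouse ES cells carrying hypomorphic BRCA2 R2336H; olaparib 500 nM added 48 h post-transfection, CellTiter-Glo viability 72 h later. Normalized to plate-median negative control; MAD z-scores, gene median, seed-adjusted.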
row,Sequence,z-score
1,GGACUCAAGACACCAGUUGTT against D5Bwg0860e,inactive: -2.67
2,GGGCAGUUUUACAAAUGUUTT against Fbxw8,inactive: -1.31
3,GGUUUCAAGUGAUGAAUAGTT against Ntf5,inactive: 0.176
4,GCCACAUAAGGUUGUUCCCTT against Gamt,inactive: -0.12
5,GGUGUUUUCCAACAUCCUCTT against Ccrl2,inactive: 0.253
6,CCCAGUGAAGCAUUUUUUATT against Rpp30,inactive: 1.27
7,GGAGUUGUAGAGAAUUUAGTT against Zfp85-rs1,inactive: 1.31
8,GCUUUAAUUCACCAUUAGGTT against Pax9,inactive: -0.451
9,GUGCAGCUAUGAGCUGUUCTT against Sepx1,inactive: 0.966
10,GGCAUUACAUUUCAAUGAATT against Serpinb12,inactive: 0.557
11,GGGAAUCGGUGGAUUUGGATT against 1110057H19Rik,inactive: -0.199
12,GGACACUAUGACGGAAGUATT against Apoe,inactive: 2.46
13,GGGAAAAUGCCUAUCGAUUTT against Meis1,inactive: 0.777
14,CCUUCCCUUAAAUGGAACCTT against Slc9a1,inactive: 1.6
15,GGAUGGGCCAUAUUGUCCUTT against 1110008J03Rik,inactive: 0.755
16,AUAAAGAUGUCAGUGAUGCTT against Olfr951,inactive: -0.891
17,GGUCACUGUUUCCCUAGACTT against Prss33,active: -0.494
18,GCACUGUGAGUGGAUACUUTT against Slc5a3,inactive: -2.02
19,GGGCAACUUUGAUUAAUCATT against Hsd3b7,inactive: -1.23
20,GGCAAGAUCACCUUCUGCATT against Psmd4,inactive: -3.03
21,GAUGCACUUCGAAUCAGGGTT against Uchl3,inactive: 3.06
22,GCUAGAGAAAUGGAAUUUATT against 4632411B12Rik,inactive: 0.259

# Individual results from the list:
# GGGCAACUUUGAUUAAUCATT against Hsd3b7 | z-score: inactive: -1.23
# GGGCAGUUUUACAAAUGUUTT against Fbxw8 | z-score: inactive: -1.31
# AUAAAGAUGUCAGUGAUGCTT against Olfr951 | z-score: inactive: -0.891
# CCCAGUGAAGCAUUUUUUATT against Rpp30 | z-score: inactive: 1.27
# GAUGCACUUCGAAUCAGGGTT against Uchl3 | z-score: inactive: 3.06
# GGAUGGGCCAUAUUGUCCUTT against 1110008J03Rik | z-score: inactive: 0.755

# The results go on.

row,Sequence,z-score
1,GCUUUUACGGGAGAAAACUTT against Xbp1,inactive: -2.65
2,CCAGAUUUGAGCGAAACCUTT against Myo15,inactive: 0.984
3,GGUCUUGAUUAUAAGCCCATT against 9430063L05Rik,inactive: 0.984
4,GCACAGCUUUUUGGAUCUGTT against A630028O16Rik,inactive: -0.987
5,GGAAGGCUCAGAGAAAUAATT against Ssr4,inactive: -0.122
6,GGAGAAGCUGCUGGCAGAATT against 2610009I02Rik,inactive: 1.46
7,GGCUCAUUGUAGCAAAUUATT against 2610034K17Rik,inactive: -1.27
8,GCUGUAAUGACCAGUGUUUTT against Gpam,inactive: 0.124
9,GGCCAAACUGGAUUACUUATT against Tmprss11c,inactive: -0.141
10,GGCCUGAAUGACACCUUUATT against Anp32e,inactive: -0.803
11,GCCACCCUUCUGGAGAUUCTT against MGC107702,inactive: -0.916
12,GGAGCUGUACUCCAAGAAGTT against 1810007P19Rik,inactive: -2.08
13,CGAACCAUAGCUAGCUCCATT against 4931406O17Rik,inactive: -0.172
14,GGUUGCUACUUUUGGCAGGTT against Dusp7,inactive: 1.12
15,CCUAUCUUGUCCGGUUUACTT against 2810410C14Rik,inactive: -0.969
16,GGACUAUUUGGAAACCUCCTT against Olfr1366,inactive: 0.851
17,GGUUGAGAAGAAGAAUGGATT against Thap4,inactive: -3.01
18,GGAAAAUACACAGAGAUAUTT against Stk3,inactive: 1.4
19,GGAAAUUGUUGUUUCCCGUTT against Sf3b3,inactive: -3.12
20,GUUCUCAAGUAUCCCAGGCTT against 1110006O24Rik,inactive: -0.262
21,GCGAACCCAUCAGUGAAGUTT against Dpp10,inactive: 0.566
22,CCUGAAUUGUUCCUUCCAUTT against G630024C07Rik,inactive: -1.99

row,Sequence,z-score
1,GCAAGUAGUUAGCUCAGGGTT against Gabpb1,inactive: -1.79
2,GCUGGAUCAGCUAGCAAAATT against Cpa1,inactive: 2.56
3,GCCAGCUAAAAUAGAAAAATT against Vldlr,inactive: -0.161
4,GCAUUAAGGCACAAACAAATT against Myo1b,inactive: 0.993
5,CGCCUUGCUAGUUUAAUGATT against Matr3,inactive: 0.451
6,GGAUAACCGUAUUAAUUUCTT against Gm2a,inactive: -0.188
7,CGAAACCUCUAAGAAGAUATT against Pole,inactive: 0.211
8,GGUAAUUUCUUACCAAGGATT against Gabpa,inactive: -2.68
9,GGAAAUCAUAUAUGCAAAGTT against Dpp4,inactive: 0.914
10,UGACACCUUCUCAUUGGCCTT against Tceb3bp1,inactive: -0.434
11,GGAUGUUGUUUGGGCUUUUTT against Olfr140,inactive: -0.198
12,GGCACAAUGGACUCAGUCATT against 2410129E14Rik,inactive: -0.494
13,GCUCUAAGGAACAUGUAAATT against Recql,inactive: -0.919
14,GGAGAUUUUGAUGAGCAGATT against D930035B09Rik,inactive: 0.894
15,GGAAAAUUUAUGCAGUGGATT against Carm1,inactive: -1.36
16,GCAUCUACCACACAAUGGCTT against Wdfy1,inactive: -1.98
17,GGUCUUUUUUCCUUUGUUCTT against Ogg1,inactive: -0.474
18,GGUUGAGCUGAAGAAUGGATT against Prss11,inactive: -1.89
19,GGUCAUGUCCGAGUACAACTT against Stx1a,inactive: 1.41
20,GCUGCCUCUAUUUCAGUUCTT against Fbxo27,inactive: 0.759
21,GGAAACUGCAUUCAAGCCATT against Apod,inactive: 1.19
22,GGUUCAACUCUCUUUUUGATT against 4930417M19Rik,inactive: 0.193
